Data on 1 molecule can be found in patent publication US20100166707A1.

The target of assay [1] is T1, human Sipa-1 (human) (UniProt Q96FS4).
T1 sequence (looked up): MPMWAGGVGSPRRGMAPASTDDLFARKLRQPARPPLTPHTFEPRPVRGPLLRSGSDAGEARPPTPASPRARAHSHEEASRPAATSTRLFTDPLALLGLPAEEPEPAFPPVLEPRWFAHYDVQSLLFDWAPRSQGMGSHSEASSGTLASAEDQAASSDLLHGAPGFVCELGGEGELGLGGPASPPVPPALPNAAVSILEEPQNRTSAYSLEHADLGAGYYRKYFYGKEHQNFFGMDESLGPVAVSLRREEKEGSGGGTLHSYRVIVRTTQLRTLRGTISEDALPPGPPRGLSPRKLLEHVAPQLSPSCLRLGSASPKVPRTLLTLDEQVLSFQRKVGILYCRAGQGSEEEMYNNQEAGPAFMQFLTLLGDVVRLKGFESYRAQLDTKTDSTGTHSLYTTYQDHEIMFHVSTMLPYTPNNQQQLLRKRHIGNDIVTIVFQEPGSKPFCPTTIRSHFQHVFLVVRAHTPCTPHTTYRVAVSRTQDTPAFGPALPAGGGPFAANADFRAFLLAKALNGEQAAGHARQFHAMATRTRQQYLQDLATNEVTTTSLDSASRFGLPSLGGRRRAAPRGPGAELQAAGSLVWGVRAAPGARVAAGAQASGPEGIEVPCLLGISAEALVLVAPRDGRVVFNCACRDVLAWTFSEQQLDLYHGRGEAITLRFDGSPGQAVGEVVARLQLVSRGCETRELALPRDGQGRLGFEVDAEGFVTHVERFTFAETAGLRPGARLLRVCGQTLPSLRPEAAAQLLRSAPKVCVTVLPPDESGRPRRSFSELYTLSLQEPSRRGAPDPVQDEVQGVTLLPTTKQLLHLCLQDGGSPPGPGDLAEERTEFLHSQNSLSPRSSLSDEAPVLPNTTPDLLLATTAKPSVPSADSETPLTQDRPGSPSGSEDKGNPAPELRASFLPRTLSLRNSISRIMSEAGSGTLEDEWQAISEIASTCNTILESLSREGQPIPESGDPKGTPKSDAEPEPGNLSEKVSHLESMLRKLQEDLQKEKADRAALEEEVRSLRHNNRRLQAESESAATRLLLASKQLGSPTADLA
Kind of assay: recap of Example 1 (yeast two hybrid, co-immunoprecipitation).

Assay [2] has as its target T1, human Sipa-1 (human). Kind of assay: co-immunoprecipitation from co-transfected cells, immunoblot. On the technique in general: A western blot detects proteins with antibodies after separation by electrophoresis.

These are yes or no findings as the source states them, for the method shown. Binding seen in cells or lysates may run through a third protein. Some binding calls cover weakened binding; strength is not graded here. Where a sequence is shown, tags or fusion partners need not be part of it.

B1: Anakin expressed from pcDNA3-Anakin (detected with anti-V5 antibody) (protein, not shown: small tags and cut ends)
chain: MALAMQSSEFQFAQRLASSEKGVRDRAVRKLRQYLSARTQSDTGSFSQEELLKIWKGLFYCMWVQDEPLLQEELANIISQLIHVVNSLEAQYLFIQTFWQTMNREWQGIDKLQLDKYYMLIRLVLRQSFEVLKRNAWEESQITLFLDILMKEILSPESQSPNGVRTHLIDVYLEELTTVGGAELLADQNLKLIDPFCRIAAKTKDHTLAQTVARGVFEVIVDQSACVPEESVEERKTKEDGSGFPTKALACRKAVSGKKAALDECLRDGVIGSRERDICAALKDSGSPLQFDYKAVADRLLEIANSKSTPPFNRKRLCRLVRKFQDLCEGNGAPLSSAEDNGQRRHKRKRKKLLESEKGDTVSPAAEEDSGGHIHKKKRKKRKRSHFQPDTQNLDAVAVPKVPDSESEPDTAQRQAPCGQACVTEPTAEAVSSIGENSSKPTPVMPIHNKRKRPRKKKLRAHKEICKSTTLPQEDMSKNDAVSGHSQSSAAHISSSEGVQAQKRKRKLGALPDSSSDLPVQKSGTPTSPVEGKDGQTTLPRCKRSQKKTASSTLDPCDPSSQKPAISKKKKKTMKLMSNGVLESNPGQIQALGSNRTLKKPLKTEDDFVKFDTRFLPKPLFFRKAKNSSATRPQGPAGQLNKTPSSSKKVTFGLNRNMTAEFKKTDKSILVSPTGLSRVAFNPEQRPLHGVLKTATSSPASTPLSPMRLPATTPKRRPRAADFF
With B1, the binding result in assay [1] and in assay [2] was “binds” throughout.
